The numbers were not newly measured in patent publication EP1694242B1, “PROCESS FOR MAKING PHARMACEUTICAL 7-(2-TRIMETHYLSILYLETHYL) CAMPTOTHECIN FORMULATIONS” (BIONUMERIK PHARMACEUTICALS, INC., priority 2003, dated 2005), which cites them from elsewhere.

For the data set the following is noted: closed E-ring lactone form; background statement.

On to `CC[C@@]1(O)C(=O)OCc2c1cc1n(c2=O)Cc2cc3ccccc3nc2-1` [CPT, Camptothecin], for which the “water soluble (amount of drug dissolving in water)” value is reported as “approximately 0.1 microgram of drug dissolving in 1 mL of water”.
